Measurements: publication PMC8884909
Results are given in words; binding and its absence hold for the method and conditions named. Binding seen in cells or lysates may run through a third protein. Binding can be weak; no strength is given.

Protein sequences, listed by entry. Tags and fused reporters are not part of them. Lines headed by an entry give the natural chain unless they say otherwise; changes in a name come on top. Residues count along the entry.
UniProt P67775: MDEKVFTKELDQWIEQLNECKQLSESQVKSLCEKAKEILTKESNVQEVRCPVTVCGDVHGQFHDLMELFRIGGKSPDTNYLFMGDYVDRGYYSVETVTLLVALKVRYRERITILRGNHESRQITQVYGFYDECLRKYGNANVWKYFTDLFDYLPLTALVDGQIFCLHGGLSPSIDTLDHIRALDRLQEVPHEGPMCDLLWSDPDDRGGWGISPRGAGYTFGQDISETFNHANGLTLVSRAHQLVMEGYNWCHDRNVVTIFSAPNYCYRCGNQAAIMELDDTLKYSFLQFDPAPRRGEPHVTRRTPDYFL
UniProt Q9P1W8, residues 29-387: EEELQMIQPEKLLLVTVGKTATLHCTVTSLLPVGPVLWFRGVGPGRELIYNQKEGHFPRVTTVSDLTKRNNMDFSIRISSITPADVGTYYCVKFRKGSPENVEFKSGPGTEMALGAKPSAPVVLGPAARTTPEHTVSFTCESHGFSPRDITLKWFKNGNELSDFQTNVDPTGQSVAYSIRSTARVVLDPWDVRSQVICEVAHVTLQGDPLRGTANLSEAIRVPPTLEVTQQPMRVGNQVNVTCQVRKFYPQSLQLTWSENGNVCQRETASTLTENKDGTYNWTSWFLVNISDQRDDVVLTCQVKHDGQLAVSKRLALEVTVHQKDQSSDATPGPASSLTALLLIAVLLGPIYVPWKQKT

Key:
[1] = target: protein phosphatase 2A (PP2A) (human (endogenous in A549 and H1975)) (UniProt P67775); test: co-IP; endogenous proteins precipitated from A549 and H1975 cell lysates with specific antibodies (anti-SIRPγ, anti-MST1, anti-PP2A), immunoblot
[2] = target: SIRPγ, overexpressed in A549 cells (human) (UniProt Q9P1W8); test: co-IP; A549 cells overexpressing vector, SIRPγ or SIRPγ deletion mutants; immunoprecipitation and immunoblot for SIRPγ, PP2A and MST1
[3] = target: signal regulatory protein γ (SIRPγ) (human (endogenous in A549 and H1975)) (UniProt Q9P1W8); test: co-IP; endogenous proteins precipitated from A549 and H1975 cell lysates with specific antibodies (anti-SIRPγ, anti-MST1, anti-PP2A), immunoblot

| Substance | binding [1] | binding [2] | binding [3] |
| --- | --- | --- | --- |
| signal regulatory protein γ (SIRPγ) (from UniProt Q9P1W8 29-387) | binds | – | – |
| protein phosphatase 2A (PP2A) (from UniProt P67775) (enzyme) | – | binds | binds |
